Experimental data reported in patent US20260015409A1, “RECEPTOR-MEDIATED ENDOCYTOSIS FOR TARGETED INTERNALIZATION AND DEGRADATION OF MEMBRANE PROTEINS AND CARGOS” (Dana-Farber Cancer Institute, Inc., priority 2022, published 2026).
At least one compound was matched to its structure with a doubt left.

Tested on: PC9 GR4 C797S cells
Test: MTT cell viability assay, PC9 GR4 C797S cells

CN(C)C/C=C/C(=O)Nc1cc2c(Nc3ccc(F)c(Cl)c3)ncnc2cc1O[C@H]1CCOC1 [afatinib]
inhibition of cell viability: did not respond
